Biological target: T1, CB1 receptors (Mus musculus, UniProt P47746)
T1 construct: from tissue; host or cells: mouse brain membranes
Type: biochemical
Conditions: 1 μM compound, 30 min at 30° C.

By UniProt entry, the sequences of proteins in these tests, tags left out.
UniProt P47746, whole entry: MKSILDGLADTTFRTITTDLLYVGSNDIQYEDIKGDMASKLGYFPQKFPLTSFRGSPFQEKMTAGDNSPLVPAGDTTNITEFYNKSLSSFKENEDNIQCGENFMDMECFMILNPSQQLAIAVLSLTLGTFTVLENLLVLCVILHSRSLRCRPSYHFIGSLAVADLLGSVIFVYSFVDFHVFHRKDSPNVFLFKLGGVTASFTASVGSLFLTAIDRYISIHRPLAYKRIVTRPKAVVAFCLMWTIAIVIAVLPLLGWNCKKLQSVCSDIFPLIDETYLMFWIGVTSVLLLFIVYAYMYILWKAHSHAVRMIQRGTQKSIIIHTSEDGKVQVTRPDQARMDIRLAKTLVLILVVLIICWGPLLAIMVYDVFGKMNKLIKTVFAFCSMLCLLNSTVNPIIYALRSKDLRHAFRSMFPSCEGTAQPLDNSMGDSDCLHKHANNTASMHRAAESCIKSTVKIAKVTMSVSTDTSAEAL

Cc1c(C(=O)NN2CCCCC2)nn(-c2ccc(Cl)cc2Cl)c1-c1ccc(I)cc1 [AM251]
G-protein activity: inhibited

— patent publication US9044491B2, “Method for improving blood flow using stilbenoid derivatives” (The Board of Trustees of the University of Arkansas, priority 2010, dated 2015)
